Data: PubChem BioAssay AID1688 (National Center for Advancing Translational Sciences (NCATS), 2009)
About 2,400 (1.1%) of roughly 220,000 compounds were called active. The shares of active, inactive and inconclusive entries below differ from those in the screen. Calls come from the whole dose curve; as a rule, active = well fitted inhibition curve with a large enough effect; inconclusive = small, poorly fitted or top-dose-only effect, or effect the other way; inactive = no such curve, though single readings can be large or run the other way. A potency beside an inconclusive call is a rough fit, not a confirmed value.

experiment: qHTS Multiplex Assay to Identify Dual Action Probes in a Cell Model of Huntington: Aggregate Formation (GFP); conditions: PC12 HttQ103-GFP aggregates, Acumen cytometry, 40 h; activity change, negative = inhibition: at 46.1 µM (top of the series) unless noted
Description: NIH Chemical Genomics Center [NCGC]
NIH Molecular Libraries Probe Production centers Network [MLPCN]
Assay Submitter (PI): Wei Zheng
Huntington's disease is a neurodegenerative disorder caused by a trinucleotide repeat expansion in Exon 1 of the Huntingtin gene. The CAG trinucleotide encodes glutamine and polyglutamine expansions cause cell death in selective areas of the brain. Huntington polyglutamine repeats have the tendency to form aggregates which are observable in later stages of the disease. The exact nature of the aggregates, whether toxic, protective, or insignificant, is unclear.
A stable PC12 cell line containing a gene fusion of Exon 1 of the Huntingtin gene linked to GFP under the control of the inducible ecdysone promoter were used as the cell-based model of Huntington Disease for high throughput screening. Exon 1 of the Huntingtin gene contained an expansion of 103 polyglutamines (Q103) which, when expressed, caused cell death and distinct, bright GFP aggregates. The amount of cell death and the size and intensity of GFP aggregates increased over time and induction level. The cell death were quantified with a measurement of ATP content in the cells. A maximal 40-50% of cell death was observed when the Huntington gene was induced in this cell line.
We optimized this assay in a homogeneous 1536 well format. A quantitative high throughput screen (qHTS) was conducted on the PC12 cells which were induced to express the toxic fusion construct. Small molecules which reduced aggregate formation were identified bu using a laser scanning cytometer calibrated to detect the aggregates in cell lysates.
PC12 cells stably containing a construct with an ecdysone inducible promoter expressing GFP fused to the exon 1 of HTTQ103 (Huntington protein which containing a 103 ployglutamine expansion) were used.
NCGC Assay Protocol Summary:
Sequence, Parameter, Description
1, Reagent, 5 uL 1500 cells/well 1536 TC treated White clear bottom plate
2, Compound, 23 nL Tebufenozide inducer (100 nM final) to all columns
3, Compound, 23 nL 40 uM to 0.5 nM Libraries
5, Reagent, 5 ul ATPLite cell death assay reagent
6, Detector, Aggregate quantitation by Acumen Explorer
Media consisted of phenol red free DMEM + 5% equine serum (Hyclone # SH30072.03 ), 5% supplemented Bovine Calf Serum (Hyclone # SH30074.03 ), 1x pen/strep, no G418
Acumen Explorer was used to quantitate GFP aggregates using the following criteria: […] laser excitation, 500-530 nm emission, the PMT was set at a voltage of 450 volts, and objects ranging in size of […] in size having a signal of 6 STDEV above background were collected.
Control columns: 1 = DMSO, 2= 2 uM teb dilns (1:1), 4 = 100 nM Teb inducer. Sample columns received 100 nM Teb.
% is set by controls: 0 for no effect and ±100 for the full control effect; potency is the fitted concentration of half-maximal effect.

Row | Structure (SMILES) | activity change, negative = inhibition | Potency
1 | CCOC(=O)/C(C#N)=C/c1ccc(OCC(=O)Nc2ccc(OC)cc2)c(OC)c1 | inactive: -10.2% | –
2 | CC(C)(C#CCN1CCCC1)OCCC#N | – | inconclusive: 0.0708 µM [inhibitor, full curve, poor fit]
3 | COCCn1c(SCC(=O)Nc2ccc(Cl)c(S(=O)(=O)N(C)C)c2)nc2ccccc21 | – | inconclusive: 35.5 µM [inhibitor, single point]
4 | Cc1cc(C)cc(N2C(=O)CC(Sc3nnnn3-c3ccccc3)C2=O)c1 (stereo not drawn) | – | inconclusive: 35.5 µM [inhibitor, single point]
5 | CCOC(=O)c1sc2c(c1C)c(=O)c(C(=O)OCC)cn2CC | – | inconclusive: 5.62 µM [inhibitor, single point]
6 | C(=N\Nc1nc(Nc2ccccc2)nc(Nc2ccccc2)n1)/c1cccnc1 | – | active: 4.47 µM
7 | CC(NC(=O)Nc1ccccc1O)(C(F)(F)F)C(F)(F)F | – | inconclusive: 17.8 µM [activator, single point]
8 | O=C(Cn1cncn1)N/N=C/c1c2ccccc2cc2ccccc12 | – | inconclusive: 35.5 µM [activator, single point]
9 | COCCNC(=O)CN1CCC(NC(=O)c2ccco2)CC1 | inactive: -19.1% [at 9.22 µM] | –
10 | O=C1/C(=N/n2cnnc2)c2ccccc2N1Cc1ccccc1 | inactive: 1.82% | –
11 | O=[N+]([O-])c1ccc(-c2c(O)c3ccccc3c3nc4ccccc4nc23)cc1 | – | active: 7.08 µM
12 | O=C(Nc1nc2ccc(SC(F)F)cc2s1)c1ccc2c(c1)S(=O)(=O)c1ccccc1C2=O | – | inconclusive: 5.62 µM [inhibitor, single point]
13 | COc1ccc(C(=O)NC(=S)N(Cc2ccccc2)Cc2ccccc2)cc1 | – | active: 10 µM
14 | Cc1ccc(NC(=O)CCC(=O)OCC(=O)c2ccc(Oc3ccc([N+](=O)[O-])cc3)cc2)c(C)c1 | inactive: -4.2% | –
15 | COCCn1cnnc1SCC(=O)Nc1cccc(S(=O)(=O)N(C)c2ccccc2)c1 | inactive: 17.2% | –
16 | CCCc1nc2sc3c(c2c(=O)n1NC(=O)CCC(=O)O)CCCC3 | – | inconclusive: 0.251 µM [activator, full curve, poor fit]
17 | CCCCCc1ccc(CC(=O)Nn2c(C)nc3ccccc3c2=O)cc1 | – | inconclusive: 8.91 µM [inhibitor, partial curve]
18 | CC(C)Nc1nnc(SCC(=O)c2c(N)n(Cc3ccccc3)c(=O)n(C)c2=O)s1 | – | active: 0.112 µM
19 | COc1cccc(C(=O)N2CCN(Cc3cn[nH]c3-c3ccc(F)cc3F)CC2)c1 | – | inconclusive: 35.5 µM [inhibitor, partial curve]
20 | COc1ccccc1N1CCN(C(=O)C2CCN(S(=O)(=O)c3ccc(C)cc3)CC2)CC1 | – | inconclusive: 2.51 µM [activator, partial curve]
21 | CC1CCCN(C(=O)C(C)Sc2nc(-c3ccccc3)cc(C(F)(F)F)n2)C1 (stereo not drawn) | – | inconclusive: 20 µM [inhibitor, single point]
22 | Cc1ccc(/C=C2/C(=O)N(c3ccccc3)C(=S)N2C)o1 | inactive: 26.9% | –
23 | Cc1ccc(NC(=O)CSCc2nc3c(nnn3Cc3ccc(F)cc3)c(=O)[nH]2)c(C)c1 | inactive: 7.61% [at 9.22 µM] | –

Random excerpt: 5 compounds from above, in no set order.
Row | Structure (SMILES) | activity change, negative = inhibition | Potency
17 | CCCCCc1ccc(CC(=O)Nn2c(C)nc3ccccc3c2=O)cc1 | – | inconclusive: 8.91 µM [inhibitor, partial curve]
23 | Cc1ccc(NC(=O)CSCc2nc3c(nnn3Cc3ccc(F)cc3)c(=O)[nH]2)c(C)c1 | inactive: 7.61% [at 9.22 µM] | –
16 | CCCc1nc2sc3c(c2c(=O)n1NC(=O)CCC(=O)O)CCCC3 | – | inconclusive: 0.251 µM [activator, full curve, poor fit]
6 | C(=N\Nc1nc(Nc2ccccc2)nc(Nc2ccccc2)n1)/c1cccnc1 | – | active: 4.47 µM
9 | COCCNC(=O)CN1CCC(NC(=O)c2ccco2)CC1 | inactive: -19.1% [at 9.22 µM] | –

More results:

Row | Structure (SMILES) | activity change, negative = inhibition | Potency
24 | Cc1ccc(C)n1-c1ccc(NC(=O)c2ccccc2)cc1 | – | inconclusive: 35.5 µM [activator, single point]
25 | Cc1[nH]c2ccccc2c1C(=O)CSC(=S)N1CCCCC1 | inactive: 1.63% | –
26 | Cc1ccc(-c2ccc(/C=C(\C#N)C(=O)Nc3cc(C)nn3-c3ccccc3)o2)cc1 | – | inconclusive: 0.708 µM [activator, single point]
27 | CC(Oc1ccc(Cl)cc1Cl)c1nc(-c2ccc(NC(=O)c3ccccn3)cc2)no1 (stereo not drawn) | – | inconclusive: 35.5 µM [inhibitor, single point]
28 | Cc1cc(N2CCOCC2)nc(SCC(=O)c2ccccc2)n1 | – | inconclusive: 0.891 µM [activator, full curve]
29 | COc1ccc(OCc2nn3c(Cn4cnc5ccccc54)nnc3s2)cc1 | – | active: 25.1 µM
30 | COc1cc(NC(=O)c2ccccc2-c2ccccc2)cc(OC)c1OC | – | inconclusive: 1.12 µM [activator, full curve]
31 | CC1=C(C)CC(C(=O)NNC(=O)c2ccccc2O)C(C(=O)O)C1 (stereo not drawn) | – | inconclusive: 2.82 µM [inhibitor, full curve]
32 | COc1ccc(CNC(=S)Nc2cccc(C)c2C)cc1 | – | inconclusive: 3.16 µM [activator, single point]
33 | Cn1c(Oc2ccc(F)cc2F)c(C=O)c2ccccc21 | – | inconclusive: 14.1 µM [inhibitor, single point]
34 | CC(=O)CCS(=O)(=O)c1ccc(Oc2ccc(S(=O)(=O)CCC(C)=O)cc2)cc1 | – | inconclusive: 35.5 µM [inhibitor, single point]
35 | O=C(c1cccc(C(=O)N2CCN(c3ccc(F)cc3)CC2)c1)N1CCN(c2ccc(F)cc2)CC1 | – | inconclusive: 14.1 µM [inhibitor, single point]
36 | Brc1ccc2[nH]c3c(N4CCc5ccccc5C4)ncnc3c2c1 | – | inconclusive: 0.355 µM [inhibitor, full curve, poor fit]
37 | CCc1cc(=O)oc2cc(C)c(CN3CCCCC3)c(O)c12 | inactive: 5.34% [at 9.22 µM] | –
38 | COc1ccc(C(=O)C2CCCN(C(=O)c3noc4c3CCCC4)C2)cc1F (stereo not drawn) | inactive: -4.14% [at 9.22 µM] | –
39 | Cc1cc(C=C2C(=O)c3ccccc3C2=O)c(C)n1-c1cccc(C(=O)O)c1 | – | inconclusive: 35.5 µM [inhibitor, partial curve, poor fit]
40 | O=C1CN(CC(=O)Nc2cccc(Cl)c2Cl)c2ccccc2N1 | – | inconclusive: 11.2 µM [activator, partial curve]
41 | CC(=O)c1cccc(NC(=S)NNC(=O)c2ccc(C)c([N+](=O)[O-])c2)c1 | – | inconclusive: 6.31 µM [activator, partial curve]
42 | COc1ccc(COC(=O)N/N=C(\C)CC(=O)Nc2c(C)cc(C)cc2C)cc1 | – | inconclusive: 0.1 µM [inhibitor, partial curve, poor fit]
43 | CCc1ccc(S(=O)(=O)NCCc2csc(-c3ccccc3)n2)s1 | – | inconclusive: 35.5 µM [inhibitor, single point]
44 | COCCNC(=O)C1=NOC(Cn2cc(C#N)c(=O)n(C)c2=O)C1 (stereo not drawn) | – | inconclusive: 1.78 µM [inhibitor, partial curve]
45 | COc1ccc(/C=C2\SC(=O)N=C2N)cc1 | inactive: 10.5% | –
46 | O=C1/C(=C/c2cccnc2)Oc2cc(OS(=O)(=O)c3ccc(F)cc3)ccc21 | – | inconclusive: 31.6 µM [inhibitor, single point]

Row | Structure (SMILES) | activity change, negative = inhibition | Potency
47 | O=C1C(Cl)=C(N2CCN(c3ccccc3[N+](=O)[O-])CC2)C(=O)c2ccccc21 | – | inconclusive: 35.5 µM [inhibitor, single point]
48 | Cc1cnc(NC(=O)CSc2c(Cl)cccc2Cl)s1 | inactive: -1.32% | –
49 | CC(C)N(C(=O)CSc1nc(COc2ccccc2)nc2ccccc12)C(C)C | – | inconclusive: 31.6 µM [inhibitor, single point]
50 | COc1ccc2c(C#N)c3ccccn3c2c1 | – | inconclusive: 15.8 µM [inhibitor, single point]
51 | O=C(CN1CCN(S(=O)(=O)c2ccc(F)cc2)CC1)Nc1ccc(Cl)c(C(F)(F)F)c1 | – | inconclusive: 35.5 µM [inhibitor, single point]
52 | COc1ccc(-c2[nH]c(-c3ccc4c(c3)OCO4)nc2-c2ccccc2)cc1 | – | inconclusive: 12.6 µM [inhibitor, single point]
53 | Oc1cccc2ccc[n+](CC(O)Cn3c4ccccc4c4ccccc43)c12 (stereo not drawn) | inactive: 3.8% | –
54 | COC(=O)CC1C(=O)NCCN1C(=O)c1ccccc1 (stereo not drawn) | inactive: -3.46% | –
55 | Cc1ccccc1Nc1c(-c2ccccn2)nc2ccccn12 | – | inconclusive: 35.5 µM [inhibitor, single point]
56 | CC(Cc1cccs1)NC(=O)Nc1ccc([N+](=O)[O-])cc1 (stereo not drawn) | – | inconclusive: 8.91 µM [inhibitor, partial curve]
57 | Cc1ccc(Oc2c(C=O)c3ccccc3n2C)cc1 | – | inconclusive: 22.4 µM [inhibitor, single point]
58 | Oc1ccc(Cl)cc1N=Cc1sc2ccccc2c1Cl | – | inconclusive: 1.12 µM [activator, full curve, poor fit]
59 | Cc1ccn(-c2ccc([N+](=O)[O-])cc2)n1 | – | inconclusive: 22.4 µM [inhibitor, partial curve]
60 | CC(C)c1cc(Br)ccc1OCCN1C(=O)NC(C)(C)C1=O | – | inconclusive: 3.55 µM [activator, full curve, poor fit]
61 | CCN(CC)S(=O)(=O)c1ccc(N)cc1 | inactive: 19.7% [at 9.22 µM] | –
62 | COc1ccc(OCC(=O)Nc2ccc(N3CCOCC3)cc2)cc1 | inactive: 7.85% | –
63 | O=C(Nc1nnc(SCc2ccccc2Cl)s1)c1cccc([N+](=O)[O-])c1 | – | inconclusive: 17.8 µM [inhibitor, single point]
64 | COc1ccc(-c2cc(C3CCN(C(=O)OC(C)(C)C)CC3)[nH]n2)cc1 | – | inconclusive: 35.5 µM [inhibitor, single point]
65 | CC1(C)CC(=O)C(C=Nc2ccccc2)=C(O)C1 | inactive: 4.07% | –
66 | CSc1nc(SCC(=O)NC(c2ccccc2)c2ccccc2)c2c3c(sc2n1)CN(C)CC3 | – | inconclusive: 14.1 µM [activator, single point]
67 | O=C1c2ccccc2C(=O)N1CCCOc1ccccc1 | inactive: -30.4% | –
68 | O=C(CN1CCC(C(O)(c2ccccc2)c2ccccc2)CC1)Nc1ccccc1 | – | inconclusive: 35.5 µM [inhibitor, single point]
